Test results reported in paper PMC11414581.
Results are given in words; binding and its absence hold for the method and conditions named. Binding seen in cells or lysates may run through a third protein. Some entries that bind do so weakly or less than the wild type.

Protein sequences, listed by entry. Tags and fused reporters are not part of them. Lines headed by an entry give the natural chain unless they say otherwise; changes in a name come on top. Chains listed by the source or under a name are the forms on record and can include a tag or linker. Residues count along the entry.
UniProt Q9H6L5: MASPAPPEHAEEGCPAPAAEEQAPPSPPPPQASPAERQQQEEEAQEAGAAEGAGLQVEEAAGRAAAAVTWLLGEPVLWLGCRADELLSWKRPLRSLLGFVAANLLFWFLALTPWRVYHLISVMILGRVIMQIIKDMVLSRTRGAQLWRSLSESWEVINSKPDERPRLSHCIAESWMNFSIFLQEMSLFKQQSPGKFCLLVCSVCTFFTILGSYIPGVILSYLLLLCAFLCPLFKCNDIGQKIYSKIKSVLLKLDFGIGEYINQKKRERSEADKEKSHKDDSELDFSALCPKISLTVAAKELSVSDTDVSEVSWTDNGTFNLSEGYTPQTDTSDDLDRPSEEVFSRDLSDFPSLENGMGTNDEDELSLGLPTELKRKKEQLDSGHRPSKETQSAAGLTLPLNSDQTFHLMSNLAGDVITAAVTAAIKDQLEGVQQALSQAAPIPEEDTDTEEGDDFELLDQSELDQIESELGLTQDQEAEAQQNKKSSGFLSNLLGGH
FLAG-FAM134B-1 ΔC4: residues 1-431 of Q9H6L5
FLAG-FAM134B-1 ΔC2 (Q9H6L5, form named): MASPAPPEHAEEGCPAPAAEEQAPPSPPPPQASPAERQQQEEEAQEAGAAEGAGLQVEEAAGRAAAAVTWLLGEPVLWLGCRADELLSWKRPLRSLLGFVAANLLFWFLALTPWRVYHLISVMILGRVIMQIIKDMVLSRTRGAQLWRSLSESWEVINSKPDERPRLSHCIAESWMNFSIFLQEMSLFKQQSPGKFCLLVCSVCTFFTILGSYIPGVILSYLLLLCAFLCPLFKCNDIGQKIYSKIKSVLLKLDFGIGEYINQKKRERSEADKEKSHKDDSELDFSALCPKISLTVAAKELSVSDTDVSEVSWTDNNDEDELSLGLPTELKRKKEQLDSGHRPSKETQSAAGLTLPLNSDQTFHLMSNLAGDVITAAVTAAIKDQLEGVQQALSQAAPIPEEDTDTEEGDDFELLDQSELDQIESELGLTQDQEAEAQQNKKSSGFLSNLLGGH
FLAG-FAM134B-1 ΔC1 (Q9H6L5, form named): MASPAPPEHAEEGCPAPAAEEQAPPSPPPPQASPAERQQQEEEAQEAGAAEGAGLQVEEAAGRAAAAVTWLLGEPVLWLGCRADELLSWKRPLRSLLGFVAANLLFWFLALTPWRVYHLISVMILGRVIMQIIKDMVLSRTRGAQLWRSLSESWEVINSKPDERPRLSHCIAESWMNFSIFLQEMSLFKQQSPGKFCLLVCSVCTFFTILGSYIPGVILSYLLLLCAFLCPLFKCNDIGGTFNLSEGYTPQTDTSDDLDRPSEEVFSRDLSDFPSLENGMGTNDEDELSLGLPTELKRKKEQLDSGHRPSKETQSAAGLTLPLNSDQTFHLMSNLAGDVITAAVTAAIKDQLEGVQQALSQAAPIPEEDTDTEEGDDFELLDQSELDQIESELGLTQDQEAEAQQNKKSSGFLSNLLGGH
FLAG-FAM134B-1 ΔC3 (Q9H6L5, form named): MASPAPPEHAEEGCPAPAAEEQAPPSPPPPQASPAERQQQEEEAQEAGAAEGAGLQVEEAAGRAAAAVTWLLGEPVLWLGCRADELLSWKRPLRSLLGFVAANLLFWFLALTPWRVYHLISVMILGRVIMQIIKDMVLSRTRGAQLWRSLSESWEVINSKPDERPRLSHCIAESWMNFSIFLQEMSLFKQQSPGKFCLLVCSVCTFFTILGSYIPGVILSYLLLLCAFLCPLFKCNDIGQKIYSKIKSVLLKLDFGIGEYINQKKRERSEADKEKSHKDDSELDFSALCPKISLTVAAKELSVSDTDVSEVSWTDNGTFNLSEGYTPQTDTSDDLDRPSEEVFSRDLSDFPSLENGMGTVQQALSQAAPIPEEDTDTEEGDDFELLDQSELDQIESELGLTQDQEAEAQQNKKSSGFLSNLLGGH
UniProt Q9C0E8: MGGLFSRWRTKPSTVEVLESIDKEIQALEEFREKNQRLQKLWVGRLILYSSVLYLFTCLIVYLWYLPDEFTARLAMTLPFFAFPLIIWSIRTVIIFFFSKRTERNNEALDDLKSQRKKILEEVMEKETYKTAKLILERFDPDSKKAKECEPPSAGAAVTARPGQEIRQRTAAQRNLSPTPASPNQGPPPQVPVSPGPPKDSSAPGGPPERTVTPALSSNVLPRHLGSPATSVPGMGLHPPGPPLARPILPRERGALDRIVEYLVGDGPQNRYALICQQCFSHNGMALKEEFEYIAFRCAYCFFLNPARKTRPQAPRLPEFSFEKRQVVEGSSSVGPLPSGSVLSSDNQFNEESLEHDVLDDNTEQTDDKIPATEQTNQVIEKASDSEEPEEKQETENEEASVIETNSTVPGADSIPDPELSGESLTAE
STIM1 ΔC1-mCherry (Q13586, residues 23-474): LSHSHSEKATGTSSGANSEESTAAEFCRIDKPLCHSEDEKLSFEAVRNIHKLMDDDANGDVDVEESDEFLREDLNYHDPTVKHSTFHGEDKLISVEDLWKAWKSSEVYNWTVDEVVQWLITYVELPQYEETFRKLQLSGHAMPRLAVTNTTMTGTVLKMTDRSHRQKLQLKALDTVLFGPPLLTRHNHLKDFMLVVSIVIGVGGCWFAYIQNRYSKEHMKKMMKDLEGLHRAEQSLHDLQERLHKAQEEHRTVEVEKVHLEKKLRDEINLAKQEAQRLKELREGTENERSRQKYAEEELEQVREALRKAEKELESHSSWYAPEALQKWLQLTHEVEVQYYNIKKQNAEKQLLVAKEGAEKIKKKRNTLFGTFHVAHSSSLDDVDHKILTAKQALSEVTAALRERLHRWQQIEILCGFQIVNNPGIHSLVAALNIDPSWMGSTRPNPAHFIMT
STIM1 ΔC2-mCherry (Q13586, residues 23-343): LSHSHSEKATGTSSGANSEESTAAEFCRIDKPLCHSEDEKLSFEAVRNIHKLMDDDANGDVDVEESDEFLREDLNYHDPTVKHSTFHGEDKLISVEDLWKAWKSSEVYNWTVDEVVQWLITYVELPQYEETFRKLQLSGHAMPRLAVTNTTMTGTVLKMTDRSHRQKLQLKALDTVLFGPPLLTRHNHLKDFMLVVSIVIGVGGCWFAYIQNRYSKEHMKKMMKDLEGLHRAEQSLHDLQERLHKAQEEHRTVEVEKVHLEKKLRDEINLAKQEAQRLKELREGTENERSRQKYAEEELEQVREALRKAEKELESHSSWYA

How the values were obtained:
Assay in all cases: co-IP; HEK293 cells cotransfected for 48 h; lysed in buffer A (50 mM Hepes-NaOH pH 7.5, 120 mM NaCl, 1 mM EDTA, 0.1 mM ZnSO4, 1% NP-40); anti-FLAG M2 affinity gel, 4 °C, 3 h; immunoblot with anti-mCherry pAb and anti-FLAG pAb
[1] = target: FLAG-FAM134B-1 ΔC2 (human) (UniProt Q9H6L5)
[2] = target: FLAG-FAM134B-1 ΔC1 (human) (UniProt Q9H6L5)
[3] = target: FLAG-FAM134B-1 ΔC4 (human) (UniProt Q9H6L5)
[4] = target: FLAG-FAM134B-1 ΔC3 (human) (UniProt Q9H6L5)
[5] = target: FLAG-FAM134B-1 WT (human) (UniProt Q9H6L5)

binding [1] | binding [2] | binding [3] | binding [4] | binding [5] | Substance
binds | binds | binds | binds | binds | Lnp-mCherry (from UniProt Q9C0E8 1-428)
 |  |  |  | binds | STIM1 ΔC1-mCherry (from UniProt Q13586-2 23-474) (domain or fragment)
 |  |  |  | binds | STIM1 ΔC2-mCherry (from UniProt Q13586-2 23-343) (domain or fragment)
